Laboratory results as given in article PMC8610276.
These are yes or no findings as the source states them, for the method shown. Binding seen in cells or lysates may run through a third protein. Some binding calls cover weakened binding; strength is not graded here.

The chains behind the UniProt entries cited, without tags or fusion partners.
UniProt P62198: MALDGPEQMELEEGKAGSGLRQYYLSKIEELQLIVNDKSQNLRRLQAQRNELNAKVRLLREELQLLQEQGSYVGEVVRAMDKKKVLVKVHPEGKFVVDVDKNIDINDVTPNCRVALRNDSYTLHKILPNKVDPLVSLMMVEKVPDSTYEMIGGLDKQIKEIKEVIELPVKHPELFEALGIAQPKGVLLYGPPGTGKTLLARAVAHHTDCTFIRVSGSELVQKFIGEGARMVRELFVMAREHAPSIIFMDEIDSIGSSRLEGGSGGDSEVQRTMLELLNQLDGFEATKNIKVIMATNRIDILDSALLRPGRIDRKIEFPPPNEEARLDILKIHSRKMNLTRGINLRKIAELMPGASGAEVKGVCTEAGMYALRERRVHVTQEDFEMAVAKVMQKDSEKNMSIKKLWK
UniProt P67999: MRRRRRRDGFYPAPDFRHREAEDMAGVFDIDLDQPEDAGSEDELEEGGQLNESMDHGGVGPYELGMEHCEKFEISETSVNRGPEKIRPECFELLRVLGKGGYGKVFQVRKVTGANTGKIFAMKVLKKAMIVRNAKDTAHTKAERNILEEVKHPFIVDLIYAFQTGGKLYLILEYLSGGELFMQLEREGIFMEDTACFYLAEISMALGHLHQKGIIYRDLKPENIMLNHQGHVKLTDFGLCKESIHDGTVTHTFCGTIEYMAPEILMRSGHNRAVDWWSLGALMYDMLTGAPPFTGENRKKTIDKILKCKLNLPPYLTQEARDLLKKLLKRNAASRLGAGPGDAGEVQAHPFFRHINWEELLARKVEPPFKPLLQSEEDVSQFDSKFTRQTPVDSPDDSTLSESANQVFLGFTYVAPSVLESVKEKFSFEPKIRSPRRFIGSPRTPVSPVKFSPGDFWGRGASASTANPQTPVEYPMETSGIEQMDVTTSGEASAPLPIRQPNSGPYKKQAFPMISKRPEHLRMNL

T1: MOV10, helicase and RNA-binding protein (rat) (rat (endogenous in hippocampus and in cultured hippocampal neurons)) (UniProt D3ZUC2)
T1 sequence: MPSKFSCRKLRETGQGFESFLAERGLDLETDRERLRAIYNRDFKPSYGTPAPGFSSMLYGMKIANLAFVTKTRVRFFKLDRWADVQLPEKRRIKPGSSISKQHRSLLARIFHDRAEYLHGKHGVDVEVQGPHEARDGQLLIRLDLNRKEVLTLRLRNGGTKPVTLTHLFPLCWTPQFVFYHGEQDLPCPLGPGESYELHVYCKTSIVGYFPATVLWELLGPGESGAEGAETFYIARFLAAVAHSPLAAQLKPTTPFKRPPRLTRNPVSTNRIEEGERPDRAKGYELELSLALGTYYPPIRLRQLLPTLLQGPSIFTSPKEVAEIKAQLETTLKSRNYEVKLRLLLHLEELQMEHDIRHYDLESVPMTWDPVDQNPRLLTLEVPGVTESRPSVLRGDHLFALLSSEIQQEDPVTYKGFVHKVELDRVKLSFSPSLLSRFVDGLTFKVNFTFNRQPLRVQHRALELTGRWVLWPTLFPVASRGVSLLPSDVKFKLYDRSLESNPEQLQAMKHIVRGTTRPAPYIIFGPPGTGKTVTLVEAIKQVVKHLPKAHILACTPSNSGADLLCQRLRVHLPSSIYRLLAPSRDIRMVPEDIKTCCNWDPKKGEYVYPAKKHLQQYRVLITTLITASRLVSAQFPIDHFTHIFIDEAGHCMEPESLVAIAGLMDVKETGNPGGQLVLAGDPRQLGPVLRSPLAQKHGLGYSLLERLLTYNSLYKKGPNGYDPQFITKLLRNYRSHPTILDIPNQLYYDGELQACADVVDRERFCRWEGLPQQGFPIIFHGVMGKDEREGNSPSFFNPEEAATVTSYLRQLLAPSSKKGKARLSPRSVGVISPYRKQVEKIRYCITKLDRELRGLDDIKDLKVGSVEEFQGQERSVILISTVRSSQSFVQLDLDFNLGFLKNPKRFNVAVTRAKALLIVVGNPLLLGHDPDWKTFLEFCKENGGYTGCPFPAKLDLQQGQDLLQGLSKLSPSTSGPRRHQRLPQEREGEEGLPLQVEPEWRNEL


How the values were obtained:
[1] = molecular target: Rpt6 subunit of the 19S proteasome (rat) (rat (endogenous in hippocampus)) (UniProt P62198); assay: co-IP; Rpt6 antibody (5 ug) or mouse IgG with protein G-agarose on post-mitochondrial supernatant of adult SD rat hippocampi; lysis in 50 mM Tris pH 7.5, 150 mM NaCl, 1% NP-40, 2 mM EDTA with RNase inhibitor; washes with 150, 300 and 450 mM NaCl; 4°C; western blot
[2] = molecular target: T1, MOV10, helicase and RNA-binding protein (rat) (rat (endogenous in hippocampus and in cultured hippocampal neurons)); assay: co-IP; MOV10 antibody (5 ug) or rabbit IgG with protein G-agarose on post-mitochondrial supernatant of adult SD rat hippocampi; lysis in 50 mM Tris pH 7.5, 150 mM NaCl, 1% NP-40, 2 mM EDTA with RNase inhibitor; washes with 150 and 300 mM NaCl; 4°C; western blot
[3] = molecular target: T1, MOV10, helicase and RNA-binding protein (rat) (rat (endogenous in hippocampus and in cultured hippocampal neurons)); assay: co-IP; MOV10 antibody with protein G-agarose on lysates of cultured rat hippocampal neurons (control or Trim32 shRNA) treated with bicuculline (10 uM) or vehicle for 24 hours, all with lactacystin (10 uM); 50 mM Tris-HCl pH 7.5, 100 mM KCl, 12 mM MgCl2; washes with 300 mM KCl; 4°C; western blot

Row | binding [1] | binding [2] | binding [3] | Molecule
1 | binds | – | – | p70 S6 kinase (rat) (from UniProt P67999 1-525)
2 | – | binds | binds | Trim32, E3 ligase (rat) (protein, UniProt Q66H79 1-655) MAAAAAASHLNLDALREVLECPICMESFTEEQLRPKLLHCGHTICRQCLEKLLASSINGVRCPFCSKITRITSLTQLTDNLTVLKIIDTAGLSEAVGLLMCRACGRRLPRQFCRSCGLVLCEPCREADHQPPGHCTLPVKEAAEERRRDFGEKLTRLRELTGELQRRKAALEGVSRDLQARYKAVLQEYGHEERRVQEELARSRKFFTGSLAEVEKSNSQVVEEQSYLLNIAEVQAVSRCDYFLAKIKQADVALLEETADEEEPELTASLPRELTLQDVELLKVGHVGPLQIGQAVKKPRTVNMEDSWAVEEGAASSASASVTFREMDMSPEEVVPSPRASPAKQRSSEAASSIQQCLFLKKMGAKGSTPGMFNLPVSLYVTSQSEVLVADRGNYRIQVFNRKGFLKEIRRSPSGIDSFVLSFLGADLPNLTPLSVAMNCHGLIGVTDSYDNSLKVYTLDGHCVACHRSQLSKPWGITALPSGQFVVTDVEGGKLWCFTVDRGAGVVKYSCLCSAVRPKFVTCDAEGTVYFTQGLGLNVENRQNEHHLEGGFSIGSVGPDGQLGRQISHFFSENEDFRCIAGMCVDARGDLIVADSSRKEILHFPKGGGYSVLIREGLTCPVGIALTPKGQLLVLDCWDHCVKIYSYHLRRYSTP
